According to patent publication US20200369754A1:
Changes are numbered by the printed parent chain. Names and notes keep the numbering of the source. Results are given in words; binding and its absence hold for the method and conditions named. Some entries that bind do so weakly or less than the wild type. Blank lines part the entries; values can stand above or below the binder they belong to.

Amino acid sequences for entries named in this document (tags omitted). A change or cut given only in a name is not applied to a line headed by its entry. Chains listed by the source or under a name are the forms on record and can include a tag or linker.
PHFs (tau seeds) from human AD brain homogenate (P10636, form named): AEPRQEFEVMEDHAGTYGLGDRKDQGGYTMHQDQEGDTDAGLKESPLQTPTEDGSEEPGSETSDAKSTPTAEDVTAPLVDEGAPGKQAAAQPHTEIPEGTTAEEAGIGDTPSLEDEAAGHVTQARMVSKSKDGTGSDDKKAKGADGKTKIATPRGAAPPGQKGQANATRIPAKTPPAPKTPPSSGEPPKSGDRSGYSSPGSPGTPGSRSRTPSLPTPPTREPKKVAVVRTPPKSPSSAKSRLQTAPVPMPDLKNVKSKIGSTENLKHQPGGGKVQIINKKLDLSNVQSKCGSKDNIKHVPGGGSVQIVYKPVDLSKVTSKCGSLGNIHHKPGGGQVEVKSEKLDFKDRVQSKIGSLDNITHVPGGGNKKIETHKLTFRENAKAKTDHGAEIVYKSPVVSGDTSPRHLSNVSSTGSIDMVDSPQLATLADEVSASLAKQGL

Target: PHFs (tau seeds) from human AD brain homogenate (human) (UniProt P10636)
Experiment: immunodepletion of AD brain homogenate with antibody and protein G beads

binding: binds
B1: CBTAU-28.1 (I50M[VH];Y52W[VH];S103W[VH];Y31W[VL];N99H[VL]) (antibody, V domains shown)
VH: QVQLQQSGAEVKKPGESLKISCEASGYSFTNYWIGWVRQMPGKGLEWMGMIWPGDSDTRYSPPFQGQVTITADRSITTAYLEWSSLKASDTAMYYCARVGRPWKGGWFDPWGQGTLVTVSS
VL: DIQMTQSPDSLAVSLGERATINCESSQTLLWSSNEKNYLAWYQQKPGQPPKLLISWASTPESGVPDRFSGSGSGTSFTLTISSLQAEDVAVYYCQQYYHSPYTFGQGTRLEIK

binding: binds
B2: CBTAU-28.1 (I50M[VH];Y52W[VH];S103F[VH];Y31W[VL];N99H[VL]) (antibody, V domains shown)
VH: B1 VH with W103F
VL: B1 VL
